# Residue numbers refer to the chain shown, from its start. Results are given in words; binding and its absence hold for the method and conditions named. In cells and extracts the contact can be indirect. Some entries that bind do so weakly or less than the wild type. For part of these data: Tags and fused reporters may be left off the sequences shown.
# T1: Flag-tagged TBK1 (TANK-binding kinase 1), human, full length (human) (UniProt Q9UHD2)
# T1 sequence: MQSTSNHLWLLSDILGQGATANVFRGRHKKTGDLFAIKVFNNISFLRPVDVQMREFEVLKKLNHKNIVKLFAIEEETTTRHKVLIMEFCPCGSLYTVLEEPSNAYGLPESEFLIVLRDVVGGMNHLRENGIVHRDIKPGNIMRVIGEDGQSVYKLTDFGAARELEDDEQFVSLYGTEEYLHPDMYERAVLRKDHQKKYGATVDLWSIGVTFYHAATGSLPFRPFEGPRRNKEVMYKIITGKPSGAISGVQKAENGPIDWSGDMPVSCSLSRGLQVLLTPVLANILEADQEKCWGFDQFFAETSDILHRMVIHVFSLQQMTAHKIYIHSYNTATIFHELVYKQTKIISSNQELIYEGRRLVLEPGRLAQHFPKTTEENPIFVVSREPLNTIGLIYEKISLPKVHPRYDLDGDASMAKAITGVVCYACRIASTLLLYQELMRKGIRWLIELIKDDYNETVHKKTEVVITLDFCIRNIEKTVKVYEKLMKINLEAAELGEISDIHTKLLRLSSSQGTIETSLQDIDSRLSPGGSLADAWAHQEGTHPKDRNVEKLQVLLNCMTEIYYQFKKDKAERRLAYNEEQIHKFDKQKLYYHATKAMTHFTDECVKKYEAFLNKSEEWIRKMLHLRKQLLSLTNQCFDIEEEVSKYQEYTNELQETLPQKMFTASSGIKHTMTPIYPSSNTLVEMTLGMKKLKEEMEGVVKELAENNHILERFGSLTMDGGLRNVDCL
# T2: Tbk1, endogenous in neonatal rat cardiomyocytes (rat (endogenous in neonatal rat cardiomyocytes)) (UniProt D4A7D3)
# T2 sequence: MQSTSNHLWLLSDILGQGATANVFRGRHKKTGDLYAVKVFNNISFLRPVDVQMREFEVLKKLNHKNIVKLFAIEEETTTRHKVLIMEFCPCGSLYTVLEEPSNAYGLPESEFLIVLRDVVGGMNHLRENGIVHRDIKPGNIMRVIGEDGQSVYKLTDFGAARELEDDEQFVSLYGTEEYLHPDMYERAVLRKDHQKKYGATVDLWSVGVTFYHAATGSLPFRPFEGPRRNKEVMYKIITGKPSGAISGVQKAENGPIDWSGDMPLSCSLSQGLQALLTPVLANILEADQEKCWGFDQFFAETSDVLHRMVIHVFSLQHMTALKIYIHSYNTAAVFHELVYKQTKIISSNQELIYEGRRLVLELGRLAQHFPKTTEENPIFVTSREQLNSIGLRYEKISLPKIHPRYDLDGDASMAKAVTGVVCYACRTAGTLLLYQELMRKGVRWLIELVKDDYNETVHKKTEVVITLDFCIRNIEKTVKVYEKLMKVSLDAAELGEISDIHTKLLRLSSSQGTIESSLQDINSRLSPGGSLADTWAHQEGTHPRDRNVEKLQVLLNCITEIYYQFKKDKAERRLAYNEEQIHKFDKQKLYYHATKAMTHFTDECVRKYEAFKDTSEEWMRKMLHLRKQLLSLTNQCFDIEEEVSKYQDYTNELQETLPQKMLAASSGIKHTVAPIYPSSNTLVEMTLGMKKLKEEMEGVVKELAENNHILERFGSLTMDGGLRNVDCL
# T3: Tbk1, endogenous in mouse heart (mouse (endogenous in heart tissue)) (UniProt Q9WUN2)
# T3 sequence: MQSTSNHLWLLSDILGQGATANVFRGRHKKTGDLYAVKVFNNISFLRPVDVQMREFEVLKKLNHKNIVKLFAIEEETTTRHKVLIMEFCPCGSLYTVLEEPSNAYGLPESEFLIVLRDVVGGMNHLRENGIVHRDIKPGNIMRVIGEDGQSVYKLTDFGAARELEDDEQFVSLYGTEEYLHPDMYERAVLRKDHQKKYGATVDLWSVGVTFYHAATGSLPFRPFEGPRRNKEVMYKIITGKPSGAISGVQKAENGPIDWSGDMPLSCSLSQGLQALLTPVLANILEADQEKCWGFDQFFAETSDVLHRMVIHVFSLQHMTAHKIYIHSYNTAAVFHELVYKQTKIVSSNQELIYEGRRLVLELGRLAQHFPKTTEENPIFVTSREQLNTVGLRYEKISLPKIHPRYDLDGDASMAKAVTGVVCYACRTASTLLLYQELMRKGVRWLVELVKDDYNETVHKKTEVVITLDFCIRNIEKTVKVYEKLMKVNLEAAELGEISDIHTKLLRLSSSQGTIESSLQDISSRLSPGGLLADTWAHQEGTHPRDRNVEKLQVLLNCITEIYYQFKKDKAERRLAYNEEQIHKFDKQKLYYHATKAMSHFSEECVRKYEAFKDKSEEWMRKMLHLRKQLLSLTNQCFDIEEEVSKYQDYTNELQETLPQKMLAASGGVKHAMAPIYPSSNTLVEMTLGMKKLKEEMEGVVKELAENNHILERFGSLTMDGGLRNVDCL
# B1: Myc-tagged SIKE (suppressor of IKKɛ), human, full length (protein, UniProt Q9BRV8 1-207)
# chain: MSCTIEKILTDAKTLLERLREHDAAAESLVDQSAALHRRVAAMREAGTALPDQYQEDASDMKDMSKYKPHILLSQENTQIRDLQQENRELWISLEEHQDALELIMSKYRKQMLQLMVAKKAVDAEPVLKAHQSHSAEIESQIDRICEMGEVMRKAVQVDDDQFCKIQEKLAQLELENKELRELLSISSESLQARKENSMDTASQAIK
# B2: Sike, endogenous in neonatal rat cardiomyocytes (protein, UniProt Q5FWT9 1-207)
# chain: MSCTIEKILTDAKTLLERLREHDAAAESLVDQSAALHRRVAAMREAGAVLPEQYQEDASDVKDMSKYKPHILLSQENTQIRDLQQENRELWVSLEEHQDALELIMSKYRKQMLQLMVAKQAVDAEPVLKAHQSHSAEIESQIDRICEMGAVMRRAVQVDDNQFCKIQEKLAQLELENKELRELLSISSESLQVGKESSVAPEAQTIR
# B3: Sike, endogenous in mouse heart (protein, UniProt Q9CPR7 1-207)
# chain: B2 chain with Q120K, I166V, K169R, E202A, A203S, R207K
# Tests used:
# [1] = target: T1, Flag-tagged TBK1 (TANK-binding kinase 1), human, full length (human); test: co-IP; HEK293T cells co-transfected with Myc-SIKE and Flag-TBK1 plasmids (full length or truncates), harvested after 48 h; lysis buffer 20 mM Tris-HCl pH 7.4, 150 mM NaCl, 1 mM EDTA, 1% Triton X-100; IP with Flag or Myc antibody and protein G-agarose, 4 °C overnight; immunoblot
# [2] = target: T2, Tbk1, endogenous in neonatal rat cardiomyocytes (rat (endogenous in neonatal rat cardiomyocytes)); test: co-IP; endogenous proteins, cytoplasmic portion of neonatal rat cardiomyocytes; IP with TBK1 antibody or SIKE antibody; immunoblot
# [3] = target: T3, Tbk1, endogenous in mouse heart (mouse (endogenous in heart tissue)); test: co-IP; endogenous proteins, heart tissue of wild-type mice 4 weeks after sham surgery (basal conditions)
binder,measurement,setting,value
B1,binding,[1],binds
B2,binding,[2],binds
B3,binding,[3],binds

# From PMC4895691, “Suppressor of IKKɛ is an essential negative regulator of pathological cardiac hypertrophy” (Nature Communications, 2016)
